Experimental data as given in PMC5815094.
These are yes or no findings as the source states them, for the method shown.

Chains of the proteins cited; added tags and fusions are not shown.
UniProt P0A6X3: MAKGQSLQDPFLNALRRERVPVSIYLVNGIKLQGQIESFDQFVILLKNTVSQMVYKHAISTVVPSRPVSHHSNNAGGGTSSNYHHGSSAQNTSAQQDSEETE
UniProt Q51380: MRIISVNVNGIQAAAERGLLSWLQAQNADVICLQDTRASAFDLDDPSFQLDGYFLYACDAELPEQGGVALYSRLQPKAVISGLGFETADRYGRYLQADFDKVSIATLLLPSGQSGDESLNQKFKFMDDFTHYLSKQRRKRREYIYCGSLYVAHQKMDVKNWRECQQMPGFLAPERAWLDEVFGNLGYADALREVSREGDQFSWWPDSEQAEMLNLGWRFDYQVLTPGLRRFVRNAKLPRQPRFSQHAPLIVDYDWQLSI

Target: E. coli HfqEc-T18 fusion protein (E. coli) (UniProt P0A6X3)
Assay: two-hybrid

For T25-Crc (from UniProt Q51380 1-259), the binding was “no binding”.
